From article PMC6520003
No constants are given. Whether binding was seen depends on the method and setting. In cells and extracts the contact can be indirect. Some results given as binding are weak or reduced against the parent protein; the word gives no strength.

Legend:
[1] = target: T1, G-protein Gnα11 (mouse (endogenous in HT22)) (UniProt P21278); experiment: co-IP; HT22 cell lysate (IP Lysis/Wash Buffer) after T-BSA treatment; mouse anti-Gnα11 antibody or control mouse IgG overnight at 4 °C, Protein A/G magnetic beads; blot with rabbit anti-ZIP9 and mouse anti-Gnα11
T1 sequence: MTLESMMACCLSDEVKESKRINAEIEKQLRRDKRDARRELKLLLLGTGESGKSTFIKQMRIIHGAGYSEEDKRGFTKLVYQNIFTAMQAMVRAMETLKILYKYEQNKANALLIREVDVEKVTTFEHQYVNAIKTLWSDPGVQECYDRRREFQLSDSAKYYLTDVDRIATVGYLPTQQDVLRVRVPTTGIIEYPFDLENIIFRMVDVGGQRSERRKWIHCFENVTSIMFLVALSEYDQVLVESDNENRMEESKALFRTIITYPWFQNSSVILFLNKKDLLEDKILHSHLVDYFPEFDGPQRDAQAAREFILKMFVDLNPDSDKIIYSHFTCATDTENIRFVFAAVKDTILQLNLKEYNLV

[2] = target: T1, G-protein Gnα11 (mouse (endogenous in HT22)); experiment: proximity ligation; Duolink PLA in fixed, permeabilised HT22 cells with rabbit anti-ZIP9 and mouse anti-Gnα11; cells treated with T-BSA after nc-shRNA, ZIP9-shRNA or Gnα11-shRNA

- binding [1]: binds
- binding [2]: binds
B1: G-protein-coupled receptor (GPCR)-zinc transporter ZIP9 (SLC39A9) (protein, UniProt Q8BFU1 1-308)
chain: MDDFLSISLLSVAMLVGCYVAGIIPLAVNFSEERLKLVTVLGAGLLCGTALAVIVPEGVHALYEEVLEGKHHQTSEMKQNGIASDKAAEISSVHEHEHSHDHTQLHAYIGVSLVLGFVFMLLVDQIGSSHVHSSDDPETARPSSSKITTTLGLVVHAAADGVALGAAASTSQTSVQLIVFVAIMLHKAPAAFGLVSFLMHAGLERNRIRKHLLVFALAAPAMSMLTYLGLSKSSKEALSEVNATGVAMLFSAGTFLYVATVHVLPEVGGMGHSHKPDTTGGRGLSRLEVAALVLGCLIPLILSIGHQH
